# Library screening results

The chains behind the UniProt entries cited, without tags or fusion partners.
UniProt E9BF75, entry or part of it: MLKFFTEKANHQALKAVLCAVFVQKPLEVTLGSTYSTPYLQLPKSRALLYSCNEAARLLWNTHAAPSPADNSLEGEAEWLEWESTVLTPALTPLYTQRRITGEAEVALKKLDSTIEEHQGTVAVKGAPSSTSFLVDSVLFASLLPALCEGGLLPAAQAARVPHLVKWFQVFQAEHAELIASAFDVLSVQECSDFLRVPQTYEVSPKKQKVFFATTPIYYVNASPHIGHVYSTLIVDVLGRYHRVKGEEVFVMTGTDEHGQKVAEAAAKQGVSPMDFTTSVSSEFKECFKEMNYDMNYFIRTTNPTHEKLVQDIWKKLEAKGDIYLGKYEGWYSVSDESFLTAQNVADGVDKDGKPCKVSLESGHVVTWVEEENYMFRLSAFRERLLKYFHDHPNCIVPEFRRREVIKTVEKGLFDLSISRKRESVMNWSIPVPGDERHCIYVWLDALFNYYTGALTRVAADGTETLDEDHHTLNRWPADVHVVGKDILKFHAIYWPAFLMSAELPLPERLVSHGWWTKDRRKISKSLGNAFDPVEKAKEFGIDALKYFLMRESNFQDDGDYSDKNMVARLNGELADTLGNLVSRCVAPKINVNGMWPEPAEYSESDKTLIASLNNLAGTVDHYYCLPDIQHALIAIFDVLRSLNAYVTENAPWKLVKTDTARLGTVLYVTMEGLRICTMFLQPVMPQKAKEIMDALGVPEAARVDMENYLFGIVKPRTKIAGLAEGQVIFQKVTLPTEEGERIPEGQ

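Methionyl-tRNA synthetase (putative), Leishmania donovani (UniProt E9BF75). Primary screen of methionyl-tRNA synthetase; the read-out is not stated. The test concentration is not given. Values are per cent inhibition. Size under these conditions: about 68,000 compounds, about 24 of them at 50% or above in at least one test.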

Results are percentages, as filed. The controls that fix the scale are not given in the record; negative values are as filed. This is an unselected part of the compounds tested.

| # | compound | inhibition |
|---|---|---|
| 1 | `CN1CCN([C@@H]2CCN(CC3CCOC3)[C@H]2Cc2cnn(C)c2)CC1` (some centres not stated) | 16.06 |
| 2 | `CSc1nc2ccsc2c(=O)n1CC(=O)NC1CCCC1` | -23.2 |
| 3 | `COCCN(Cc1cnn(C)c1)c1nc(C)nc2sccc12` | 12.03 |
| 4 | `Cc1cc(C(=O)NCCC2CN(C)CCO2)c2cccc(C)c2n1` (configuration not stated) | 9.859 |
| 5 | `COc1ccc2c(c1)nc1n2[C@@H](CNCc2ncccc2C)COC1` | 4.396 |
| 6 | `O=C1Nc2ccccc2CN(CC2CC2)C12CCNC2` (configuration not stated) | 14.29 |
| 7 | `CCc1nc(CS(=O)(=O)Cc2noc(C3CC3)n2)cs1` | 9.025 |
| 8 | `COc1cc(N2CCCC(c3ncc[nH]3)C2)ncn1` (configuration not stated) | 14.4 |
| 9 | `O=C(c1ccsc1)N1CCO[C@@H]2CN(Cc3ccccn3)CC[C@@H]2C1` | 6.164 |
| 10 | `COCCN1CCO[C@@H]2CN(Cc3cc(OC)cc(OC)c3)C[C@@H]2C1` | 5.435 |
| 11 | `O=C1CCNc2ncc(-c3ccccc3Cl)cc2CN1C1CC1` | 11.23 |
| 12 | `OCc1ccc(CN(CCCn2ccnc2)Cc2ccncc2)o1` | 12.66 |
| 13 | `CN(C)C(=O)CN1CCc2ncnc(C3CC3)c2CC1` | 6.234 |
| 14 | `Cc1c(I)cccc1C(=O)NCc1nnc[nH]1` | 10.1 |
| 15 | `Cc1noc(C)c1-c1ccc(C2CCCN2CCC(N)=O)nc1` (configuration not stated) | 19.29 |
| 16 | `CCN(CC(=O)NCCc1nc(C)no1)Cc1ccc(Cl)cc1` | 1.394 |
| 17 | `CC(C)(O)CCc1cccc(C(=O)N[C@@H](CO)C(N)=O)c1` | 7.035 |
| 18 | `CS(=O)(=O)N1CCN(C(=O)CN2CCCc3c(F)cc(F)cc32)CC1` | 12.37 |
| 19 | `Cc1cc(C)c2cc(CNC(C)C)c3nn(C)c(=O)n3c2c1` | 18.64 |
| 20 | `CN(Cc1ccc2c(c1)OCCO2)C(=O)NCCc1cnn(C)c1` | 0.3175 |
| 21 | `c1cc2n(n1)CC(CNCc1ccc(OCC3CC3)nc1)CN2` (configuration not stated) | 22.27 |
| 22 | `CCN(CC)C(=O)CN(C)Cc1nc2c(cnn2C)c(=O)[nH]1` | 1.282 |
| 23 | `CCc1noc(CN2CCN(C(=O)N(CC)CC)CC2)n1` | 18.31 |
| 24 | `CN(C)C(=O)CNC(=O)c1nc2c(s1)CCCN2Cc1ccccc1` | 14.29 |
| 25 | `CCn1cc(CN2CCN(Cc3cc(C)cc(C)c3)C(=O)C2)cc1C#N` | 8.333 |
| 26 | `CC1(C(=O)N2CCN(C3CCCC3)CC2)CNCCO1` (configuration not stated) | 8.387 |
| 27 | `Fc1cccc(Cc2cncc(C3CCCN3C3CCOCC3)n2)c1` (configuration not stated) | 10.87 |
| 28 | `N[C@H]1CN(C(=O)c2ccc(Cl)cc2F)C[C@@H]1C1CC1` | 8.993 |
| 29 | `O=C(c1cnccn1)N1CCCC(Cn2cc(C3CCCC3)nn2)C1` (configuration not stated) | 2.787 |
| 30 | `COCc1cnc2n1CCN(C(=O)c1cc3ccccc3o1)C2C` (configuration not stated) | 2.801 |
| 31 | `CN(C)c1ccc(C(=O)N2CCCC2c2ccc(Cl)cc2)nn1` (configuration not stated) | 14.03 |
| 32 | `COCCNC(=O)[C@H]1C[C@H]2OCC[C@H]2N(Cc2ccoc2)C1` | 21.9 |
| 33 | `CC(C)(C)c1cn2c(n1)C(CNCc1cnn3ccccc13)CCC2` (configuration not stated) | 11.85 |
| 34 | `CN1CC(=O)N(C2CCNCC2)Cc2c(NC3CCC3)ncnc21` | 12 |
| 35 | `Cc1nc(-c2ccccc2)sc1CSC(C)C(N)=O` (configuration not stated) | 9.582 |
| 36 | `Cc1cc(C[C@@H]2COC[C@@H]2NC(=O)CCN2Cc3ccccc3C2)on1` | 0 |
| 37 | `Cc1ccc(Sc2ccc(CN3CCC4(CCCNC4=O)C3)o2)cc1` (configuration not stated) | 22.45 |
| 38 | `CN(CCCc1cnn(C)c1)Cc1cc2n(n1)CCCN(C)C2` | 15.24 |
| 39 | `Cc1ccc(S(=O)(=O)NCC(O)c2ccoc2)s1` (configuration not stated) | 16.21 |
| 40 | `CCN(Cc1ccco1)C(=O)NCC(c1cccs1)N(C)C` (configuration not stated) | -6.028 |
| 41 | `CCO[C@H]1C[C@@H](O)C12CCN(C1CCN(c3ccccc3C)CC1)CC2` | 6.091 |
| 42 | `O=C(c1cc(C2CCCCN2CCO)n[nH]1)N1CCOCC1` (configuration not stated) | 9.375 |
| 43 | `O=C(NCc1ccc(Cl)s1)NCc1nnc2n1CCCCC2` | 18.86 |
| 44 | `CC(=O)NCC(=O)N1CCC2(CC1)NC(=O)CC2c1cccnc1` (configuration not stated) | 7.302 |
| 45 | `CN(CCc1ccccc1)Cc1c(C2CCOCC2)[nH]c2ncccc12` | 13.37 |
| 46 | `N#Cc1c(F)cccc1Nc1cnn(CC(N)=O)c1` | 15.57 |
| 47 | `COc1ccc(OC)c(C2CCN(C(=O)[C@H]3CC[C@@H](O)CC3)C2)c1` (some centres not stated) | -3.194 |
| 48 | `COc1cccc(CCC2CCCN(C(=O)c3cnccn3)C2)c1` (configuration not stated) | 12.39 |
| 49 | `Cn1cc(S(=O)(=O)N2CCC(OCCCc3ccccc3)C2)cn1` (configuration not stated) | 10.47 |
| 50 | `CCOCC1CN(c2ccc(C)nn2)Cc2nn(CC)cc21` (configuration not stated) | 7.317 |
| 51 | `Fc1ccc(NCc2nnsc2Cl)c(OC(F)F)c1` | 2.419 |
| 52 | `COCCOC1CCN(C(=O)NCc2coc3ccccc23)CC1` | 10.14 |
| 53 | `Cc1ccc(CN2CCCC3(COCCN(Cc4c[nH]nn4)C3)C2)s1` (configuration not stated) | 0.7407 |
| 54 | `CC(NCC1CCN(CCO)CC1)c1ccc(C(F)(F)F)cc1` (configuration not stated) | 10.48 |
| 55 | `c1cncc(-c2nnc([C@H]3CCN(CC4CC4)C3)o2)c1` | 0 |
| 56 | `O=C(CCc1ccccc1)NCC1CCN(Cc2ccsc2)CC1` | 9.804 |
| 57 | `CC(C)=CCN1CCC(c2nccn2Cc2cscn2)CC1` | 10.37 |
| 58 | `CCCS(=O)(=O)NCc1ncc(C)c(OC)c1C` | 13.33 |
| 59 | `CCCN(Cc1ccccc1O)S(=O)(=O)C(C)CC` (configuration not stated) | 3.971 |
| 60 | `CN1CCCN(C(=O)NCCNc2cnccn2)CC1` | 20.51 |
| 61 | `CN(C)[C@@H]1CCN(C(=O)Cc2ccc(F)cc2)[C@H]1Cc1cnn(C)c1` | 7.317 |
| 62 | `COc1ccnc(NC2CCN(CC(=O)Nc3ccccc3)CC2)n1` | -4.545 |

For reference, 5 entries once more:

| compound | inhibition |
|---|---|
| `COc1ccnc(NC2CCN(CC(=O)Nc3ccccc3)CC2)n1` | -4.545 |
| `CCc1noc(CN2CCN(C(=O)N(CC)CC)CC2)n1` | 18.31 |
| `Cc1nc(-c2ccccc2)sc1CSC(C)C(N)=O` (configuration not stated) | 9.582 |
| `COc1cc(N2CCCC(c3ncc[nH]3)C2)ncn1` (configuration not stated) | 14.4 |
| `CN(CCc1ccccc1)Cc1c(C2CCOCC2)[nH]c2ncccc12` | 13.37 |

Data taken from ChEMBL document CHEMBL3988442, “University of Dundee, Small-Polar-MMV Screening Library” (2021).